Assay results published in PMC4394509.
No constants are given. Whether binding was seen depends on the method and setting. For some assays here: Binding seen in cells or lysates may run through a third protein. Some entries that bind do so weakly or less than the wild type.

By UniProt entry, the sequences of proteins in these tests, tags left out.
UniProt Q92674: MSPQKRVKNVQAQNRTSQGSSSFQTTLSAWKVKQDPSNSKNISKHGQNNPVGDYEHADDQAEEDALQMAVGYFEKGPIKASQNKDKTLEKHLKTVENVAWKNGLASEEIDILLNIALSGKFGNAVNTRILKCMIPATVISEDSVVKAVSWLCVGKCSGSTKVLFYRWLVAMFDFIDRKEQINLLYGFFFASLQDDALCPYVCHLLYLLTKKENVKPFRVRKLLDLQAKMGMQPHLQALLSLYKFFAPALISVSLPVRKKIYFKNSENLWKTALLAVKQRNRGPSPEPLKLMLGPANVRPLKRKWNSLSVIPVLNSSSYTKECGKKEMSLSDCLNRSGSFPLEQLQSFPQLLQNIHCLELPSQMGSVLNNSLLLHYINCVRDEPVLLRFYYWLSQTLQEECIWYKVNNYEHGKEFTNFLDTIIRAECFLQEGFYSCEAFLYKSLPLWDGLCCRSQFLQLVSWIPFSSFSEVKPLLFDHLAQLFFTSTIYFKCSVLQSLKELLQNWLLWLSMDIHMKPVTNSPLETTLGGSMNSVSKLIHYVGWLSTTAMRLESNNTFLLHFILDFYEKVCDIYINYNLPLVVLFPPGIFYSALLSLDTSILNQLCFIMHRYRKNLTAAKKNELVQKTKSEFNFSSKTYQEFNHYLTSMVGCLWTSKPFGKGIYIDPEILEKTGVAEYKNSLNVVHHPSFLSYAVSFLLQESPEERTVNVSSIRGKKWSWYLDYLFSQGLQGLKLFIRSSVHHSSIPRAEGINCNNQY
UniProt Q9NSP4: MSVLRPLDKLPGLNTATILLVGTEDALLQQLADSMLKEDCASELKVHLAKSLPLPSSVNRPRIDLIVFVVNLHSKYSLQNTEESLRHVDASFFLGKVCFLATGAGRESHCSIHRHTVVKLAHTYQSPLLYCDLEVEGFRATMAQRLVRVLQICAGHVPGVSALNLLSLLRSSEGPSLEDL

Key:
[1] = target: CENP-I (Fluorescence Cross Correlation Spectroscopy) (UniProt Q92674); assay: Fluorescence Cross Correlation Spectroscopy; in the nucleoplasm
[2] = target: CENP-I labelled at its N-terminus (FRET and FLIM, data not shown) (UniProt Q92674); assay: FRET or BRET; acceptor-bleaching FRET and Fluorescence Lifetime Imaging (FLIM); data not shown

binding [1]	binding [2]	Molecule
binds	–	CENP-M (Fluorescence Cross Correlation Spectroscopy) (from UniProt Q9NSP4 1-180)
–	binds	CENP-B labelled at its C-terminus (FRET and FLIM, data not shown) (protein, UniProt P07199 1-599) MGPKRRQLTFREKSRIIQEVEENPDLRKGEIARRFNIPPSTLSTILKNKRAILASERKYGVASTCRKTNKLSPYDKLEGLLIAWFQQIRAAGLPVKGIILKEKALRIAEELGMDDFTASNGWLDRFRRRHGVVSCSGVARARARNAAPRTPAAPASPAAVPSEGSGGSTTGWRAREEQPPSVAEGYASQDVFSATETSLWYDFLPDQAAGLCGGDGRPRQATQRLSVLLCANADGSEKLPPLVAGKSAKPRAGQAGLPCDYTANSKGGVTTQALAKYLKALDTRMAAESRRVLLLAGRLAAQSLDTSGLRHVQLAFFPPGTVHPLERGVVQQVKGHYRQAMLLKAMAALEGQDPSGLQLGLTEALHFVAAAWQAVEPSDIAACFREAGFGGGPNATITTSLKSEGEEEEEEEEEEEEEEGEGEEEEEEGEEEEEEGGEGEELGEEEEVEEEGDVDSDEEEEEDEESSSEGLEAEDWAQGVVEAGGSFGAYGAQEEAQCPTLHFLEGGEDSDSDSEEEDDEEEDDEDEDDDDDEEDGDEVPVPSFGEAMAYFAMVKRYLTSFPIDDRVQSHILHLEHDLVHVTRKNHARQAGVRGLGHQS
